According to paper doi:10.1101/2020.11.17.387910 (bioRxiv, 2020):
Residue numbers refer to the chain shown, from its start. These are yes or no findings as the source states them, for the method shown. Some results given as binding are weak or reduced against the parent protein; the word gives no strength. Blank lines part the entries; values can stand above or below the binder they belong to.

Experiments:
[1] = target: P5 a^0-a (P5 with domain b and the C-terminal extension loop, residue 291-440, deleted) (human) (UniProt Q15084); test: SEC
[2] = target: P5 a^0-a (P5 with domain b and the C-terminal extension loop, residue 291-440, deleted) (human) (UniProt Q15084); test: SAXS
[3] = target: human P5 (PDIA6), full-length (human) (UniProt Q15084); test: SEC
[4] = target: P5A5 mutant (P5 with V105, L109, L112, V116 and L120 mutated to Ala) (human) (UniProt Q15084); test: SEC
[5] = target: P5A5 mutant (P5 with V105, L109, L112, V116 and L120 mutated to Ala) (human) (UniProt Q15084); test: SAXS

- binding [1]: binds
- binding [2]: binds
B1: P5 a^0-a (P5 with domain b and the C-terminal extension loop, residue 291-440, deleted) (domain or fragment, UniProt Q15084 20-290)
chain: LYSSSDDVIELTPSNFNREVIQSDSLWLVEFYAPWCGHCQRLTPEWKKAATALKDVVKVGAVDADKHHSLGGQYGVQGFPTIKIFGSNKNRPEDYQGGRTGEAIVDAALSALRQLVKDRLGGRSGGYSSGKQGRSDSSSKKDVIELTDDSFDKNVLDSEDVWMVEFYAPWCGHCKNLEPEWAAAASEVKEQTKGKVKLAAVDATVNQVLASRYGIRGFPTIKIFQKGESPVDYDGGRTRSDIVSRALDLFSDNAPPPELLEIINEDIAKRT

- binding [3]: binds
B2: human P5 (PDIA6), full-length (enzyme, UniProt Q15084 20-440, looked up)
chain: LYSSSDDVIELTPSNFNREVIQSDSLWLVEFYAPWCGHCQRLTPEWKKAATALKDVVKVGAVDADKHHSLGGQYGVQGFPTIKIFGSNKNRPEDYQGGRTGEAIVDAALSALRQLVKDRLGGRSGGYSSGKQGRSDSSSKKDVIELTDDSFDKNVLDSEDVWMVEFYAPWCGHCKNLEPEWAAAASEVKEQTKGKVKLAAVDATVNQVLASRYGIRGFPTIKIFQKGESPVDYDGGRTRSDIVSRALDLFSDNAPPPELLEIINEDIAKRTCEEHQLCVVAVLPHILDTGAAGRNSYLEVLLKLADKYKKKMWGWLWTEAGAQSELETALGIGGFGYPAMAAINARKMKFALLKGSFSEQGINEFLRELSFGRGSTAPVGGGAFPTIVEREPWDGRDGELPVEDDIDLSDVELDDLGKDEL

- binding [4]: no binding
- binding [5]: no binding
B3: P5A5 mutant (P5 with V105, L109, L112, V116 and L120 mutated to Ala) (enzyme, UniProt Q15084 20-440)
chain: B2 chain with V105A, L109A, L112A, V116A, L120A
